Measured values from PMC8041807.
No constants are given. Whether binding was seen depends on the method and setting. Binding seen in cells or lysates may run through a third protein. Some results given as binding are weak or reduced against the parent protein; the word gives no strength. Where a sequence is shown, tags or fusion partners need not be part of it.

Chains of the proteins cited; added tags and fusions are not shown.
UniProt P51149: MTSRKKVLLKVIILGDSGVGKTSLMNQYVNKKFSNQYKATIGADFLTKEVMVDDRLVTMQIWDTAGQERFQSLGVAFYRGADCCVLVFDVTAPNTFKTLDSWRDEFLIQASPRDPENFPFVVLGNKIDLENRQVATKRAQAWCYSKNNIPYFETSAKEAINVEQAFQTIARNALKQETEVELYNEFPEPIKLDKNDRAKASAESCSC

T1: FLAG-TRIM39 (human) (UniProt Q9HCM9)
T1 sequence: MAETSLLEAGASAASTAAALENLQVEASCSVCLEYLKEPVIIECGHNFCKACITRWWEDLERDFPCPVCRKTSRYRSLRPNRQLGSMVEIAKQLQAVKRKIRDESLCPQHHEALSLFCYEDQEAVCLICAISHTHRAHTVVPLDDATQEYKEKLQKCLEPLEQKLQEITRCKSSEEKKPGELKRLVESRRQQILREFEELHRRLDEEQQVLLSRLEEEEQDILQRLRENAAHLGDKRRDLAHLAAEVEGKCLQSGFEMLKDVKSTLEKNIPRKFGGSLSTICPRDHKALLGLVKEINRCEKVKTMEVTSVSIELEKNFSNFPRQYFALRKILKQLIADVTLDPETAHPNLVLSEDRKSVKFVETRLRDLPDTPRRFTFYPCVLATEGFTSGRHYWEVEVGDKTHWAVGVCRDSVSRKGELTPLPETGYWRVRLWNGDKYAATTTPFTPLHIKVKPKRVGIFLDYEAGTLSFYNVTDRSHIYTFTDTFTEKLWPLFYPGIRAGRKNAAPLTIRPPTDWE

B1: FLAG-TRIM39 (protein, UniProt Q9HCM9 1-518)
chain: T1 sequence

How the values were obtained:
FLAG-TRIM39 (human) = molecular target: T1, FLAG-TRIM39 (human); assay: co-IP; HEK293T transfected with FLAG-TRIM39 for 48 h; total cell lysates immunoprecipitated with anti-FLAG or anti-Rab7 antibodies; western blot
[1] = molecular target: Rab7A (human (endogenous in HEK293T, LoVo, HCT116)) (UniProt P51149); assay: as above

Molecule | binding (FLAG-TRIM39 (human)) | binding [1]
Rab7A (from UniProt P51149 1-207) | binds | –
B1 | – | binds
